Measured values reported in publication PMC10077477.
These are yes or no findings as the source states them, for the method shown. In cells and extracts the contact can be indirect. Some results given as binding are weak or reduced against the parent protein; the word gives no strength. Where a sequence is shown, tags or fusion partners need not be part of it.

The chains behind the UniProt entries cited, without tags or fusion partners. Where a name states a change or a piece, a line headed by the entry shows the natural chain unless it says otherwise.
UniProt Q9BSQ5: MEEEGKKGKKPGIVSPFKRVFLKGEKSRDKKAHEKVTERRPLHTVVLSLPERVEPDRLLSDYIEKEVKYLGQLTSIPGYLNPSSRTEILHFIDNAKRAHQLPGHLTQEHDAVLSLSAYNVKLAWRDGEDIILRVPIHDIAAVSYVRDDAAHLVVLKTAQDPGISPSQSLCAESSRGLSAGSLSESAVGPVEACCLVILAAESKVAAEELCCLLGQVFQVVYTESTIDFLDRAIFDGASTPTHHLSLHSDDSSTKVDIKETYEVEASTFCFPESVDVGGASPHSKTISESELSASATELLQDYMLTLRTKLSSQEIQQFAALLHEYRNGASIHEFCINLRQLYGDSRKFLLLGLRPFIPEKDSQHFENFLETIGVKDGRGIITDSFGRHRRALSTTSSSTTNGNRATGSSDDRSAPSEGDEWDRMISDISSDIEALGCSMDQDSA
UniProt O00506: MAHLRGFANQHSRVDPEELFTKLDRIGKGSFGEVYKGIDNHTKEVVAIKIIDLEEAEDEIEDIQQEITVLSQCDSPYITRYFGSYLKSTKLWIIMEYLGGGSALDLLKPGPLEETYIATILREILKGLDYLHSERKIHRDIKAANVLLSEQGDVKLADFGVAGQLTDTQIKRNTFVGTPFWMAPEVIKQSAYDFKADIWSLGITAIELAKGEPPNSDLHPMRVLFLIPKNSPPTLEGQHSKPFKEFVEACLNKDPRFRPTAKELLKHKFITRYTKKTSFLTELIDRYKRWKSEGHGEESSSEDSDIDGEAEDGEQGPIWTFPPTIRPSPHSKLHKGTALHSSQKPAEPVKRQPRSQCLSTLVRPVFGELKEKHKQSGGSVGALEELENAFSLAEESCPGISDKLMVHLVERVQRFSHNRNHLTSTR

Assays:
Flag-CCM2 = Flag-CCM2 (UniProt Q9BSQ5); experiment: co-IP; HEK293 cells transfected for 48 hours, lysed with immunoprecipitation assay buffer, pulldown with anti-Flag antibody affinity gel, eluted proteins analysed by Western blot
[1] = target: Flag-tagged N-STK25(1-302)/C-CCM2(290-445) (UniProt O00506); experiment: as above

B1: Myc-MEKK3 (enzyme, UniProt Q99759 1-626)
chain: MDEQEALNSIMNDLVALQMNRRHRMPGYETMKNKDTGHSNRQSDVRIKFEHNGERRIIAFSRPVKYEDVEHKVTTVFGQPLDLHYMNNELSILLKNQDDLDKAIDILDRSSSMKSLRILLLSQDRNHNSSSPHSGVSRQVRIKASQSAGDINTIYQPPEPRSRHLSVSSQNPGRSSPPPGYVPERQQHIARQGSYTSINSEGEFIPETSEQCMLDPLSSAENSLSGSCQSLDRSADSPSFRKSRMSRAQSFPDNRQEYSDRETQLYDKGVKGGTYPRRYHVSVHHKDYSDGRRTFPRIRRHQGNLFTLVPSSRSLSTNGENMGLAVQYLDPRGRLRSADSENALSVQERNVPTKSPSAPINWRRGKLLGQGAFGRVYLCYDVDTGRELASKQVQFDPDSPETSKEVSALECEIQLLKNLQHERIVQYYGCLRDRAEKTLTIFMEYMPGGSVKDQLKAYGALTESVTRKYTRQILEGMSYLHSNMIVHRDIKGANILRDSAGNVKLGDFGASKRLQTICMSGTGMRSVTGTPYWMSPEVISGEGYGRKADVWSLGCTVVEMLTEKPPWAEYEAMAAIFKIATQPTNPQLPSHISEHGRDFLRRIFVEARQRPSAEELLTHHFAQLMY
- binding (Flag-CCM2): binds
- binding [1]: binds
